Test [1] addresses zebrafish TANK binding kinase 1 (TBK1), Flag-tagged (zebrafish). Put plainly: co-IP; EPC cells co-transfected; lysates immunoprecipitated with anti-Flag affinity gel, immunoblot of the tagged partner.
The target is the same in test [2]. In words: co-IP; EPC cells co-transfected with TBK1-Flag and MITA-HA or IRF3-Myc together with TMEM33 (2 or 4 μg); anti-Flag affinity gel; immunoblot.
The target in test [3] is T1, zebrafish mediator of IFN regulatory factor 3 activation (MITA), full-length, in HEK 293T cells (zebrafish) (UniProt E7F4N7).
T1 sequence: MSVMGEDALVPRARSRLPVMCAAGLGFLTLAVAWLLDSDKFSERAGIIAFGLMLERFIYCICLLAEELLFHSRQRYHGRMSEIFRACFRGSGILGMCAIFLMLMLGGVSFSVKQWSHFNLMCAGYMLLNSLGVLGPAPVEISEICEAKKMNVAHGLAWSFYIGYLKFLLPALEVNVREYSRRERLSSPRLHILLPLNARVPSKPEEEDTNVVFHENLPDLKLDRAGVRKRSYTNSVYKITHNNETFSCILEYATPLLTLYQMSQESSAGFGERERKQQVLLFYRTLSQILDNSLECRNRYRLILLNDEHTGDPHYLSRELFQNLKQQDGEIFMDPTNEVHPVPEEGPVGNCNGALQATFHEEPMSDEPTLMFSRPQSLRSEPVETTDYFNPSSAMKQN
Put plainly: co-IP; HEK 293T cells co-transfected (5 μg each plasmid), 24 h; RIPA lysis buffer; anti-Flag or anti-Myc affinity gel overnight at 4°C; immunoblot.

Test [4] addresses zebrafish TANK binding kinase 1 (TBK1), wild-type, in HEK 293T cells (zebrafish). Described as above.
Test [5] deals with T2, zebrafish mediator of IFN regulatory factor 3 activation (MITA), Flag-tagged (zebrafish) (UniProt E7F4N7).
T2 sequence: T1 sequence
In words: co-IP; EPC cells co-transfected; lysates immunoprecipitated with anti-Flag affinity gel, immunoblot of the tagged partner.

No constants are given. Whether binding was seen depends on the method and setting. In cells and extracts the contact can be indirect. Some entries that bind do so weakly or less than the wild type. For some of these results: Sequences can lack the tags named with a protein.

B1: zebrafish mediator of IFN regulatory factor 3 activation (MITA), HA-tagged (protein, UniProt E7F4N7 1-398)
chain: T1 sequence
For the molecule B1, the binding entry in test [1] and in test [2] was “binds” in each case.

B2: zebrafish transmembrane protein 33 (TMEM33), full-length, in HEK 293T cells (protein, UniProt A0A8M1PJV5 1-252)
chain: MADTEQRSPPPPPPPQAGAAQFLLSNKLETAMWLSRLFTVYCSIMFILPLLGPQAAANFYQRALLANALTSALRLHQRLPHFQLSRAFLAQALQEDSCHYLLYSLILVNSYPITMSIFPVFLFSLLHATTYTKKVLDTMGPNSLMFVRNFLNKLTSNQQNILKFIACNEIFLMPATVFMLFSGQGSLLQPFIYYRFLTLRYSSRRNPYCRTLFTELRILLEHFVMKPSCPVFFRRMCLNSIAFVSRLAPTGV
For B2, the binding result in test [3] and in test [4] was “binds” in each case.

B3: zebrafish transmembrane protein 33 (TMEM33), Myc-tagged (protein, UniProt A0A8M1PJV5 1-252)
chain: B2 chain
Consider B3, for which the binding entry in test [5] and in test [1] was “binds” in each case.

B4: zebrafish transmembrane protein 33 (TMEM33), HA-tagged (protein, UniProt A0A8M1PJV5 1-252)
chain: B2 chain
On to B4, for which the binding result in test [2] was “binds”.

Values taken from PMC7891750.
